Literature values, collected in patent publication US12692301B2, “Methods of improving retina-associated disease outcome using CCR3-inhibitors” (ALKAHEST INC., priority 2020, dated 2026).
Counter-ions that a name gives are not always drawn. Like-named read-outs stand apart in the source and are kept apart here. Some of these results come from one statement about several compounds together.

What was measured:
CCR3 [1] = target: T1, CCR3 (Homo sapiens, UniProt P51677); conditions: from the cited reference; read-out: IC50 (Calcium influx); cited from earlier work
T1 sequence (P51677 1-355): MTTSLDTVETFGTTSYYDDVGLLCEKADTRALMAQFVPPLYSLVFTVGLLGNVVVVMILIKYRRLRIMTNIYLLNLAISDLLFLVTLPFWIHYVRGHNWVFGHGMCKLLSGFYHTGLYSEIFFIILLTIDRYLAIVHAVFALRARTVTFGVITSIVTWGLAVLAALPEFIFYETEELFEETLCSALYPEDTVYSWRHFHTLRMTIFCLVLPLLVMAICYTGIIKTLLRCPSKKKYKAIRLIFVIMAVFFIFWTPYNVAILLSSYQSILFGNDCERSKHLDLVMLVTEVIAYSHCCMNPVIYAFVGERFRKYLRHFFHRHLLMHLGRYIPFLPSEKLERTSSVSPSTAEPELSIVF

CCR3 [2] = target: T1, CCR3; conditions: from the cited reference; read-out: IC50 (binding); cited from earlier work

| Compound | IC50 (CCR3 [1]) | IC50 (CCR3 [2]) |
| --- | --- | --- |
| N#Cc1ccc(Oc2cc(Cl)cc(Cl)c2)c(S(=O)(=O)N2CCNCC2Cn2cncn2)c1 (centres unmarked) [4-(3,5-dichlorophenoxy)-3-{[2-(1H-1,2,4-triazol-1-ylmethyl)-1-piperazinyl]sulfonyl}benzonitrile hydrochloride] | < 100 nM | < 100 nM |
| N#Cc1ccc(Oc2cc(Cl)cc(Cl)c2)c(S(=O)(=O)NC2CN3CCC2CC3)c1 [N—(R)-(+)-(1-aza-bicyclo[2.2.2]oct-3-yl)-5-cyano-2-(3,5-dichloro-phenoxy)-benzenesulfonamide] | < 100 nM | < 100 nM |
| CN(C)CCN(CCN1C(=O)CCC1=O)S(=O)(=O)c1cc(C#N)ccc1Oc1cc(Cl)cc(Cl)c1 [5-cyano-2-(3,5-dichloro-phenoxy)-N-(2-dimethylamino-ethyl)-N-[2-(2,5-dioxo-pyrrolidin-1-yl)ethyl]-benzenesulfonamide] | < 100 nM | < 100 nM |
| N#Cc1ccc(Oc2cc(Cl)cc(Cl)c2)c(S(=O)(=O)N2CCN[C@@H](Cc3c[nH]c4ccccc34)C2)c1 [4-(3,5-dichloro-phenoxy)-3-[(3S)-(1H-indol-3-ylmethyl)-piperazine-1-sulfonyl]-benzonitrile] | < 100 nM | < 100 nM |
